{"source": "patent US20230165874A1", "about": "“ANTICOAGULANT COMPOUNDS AND METHODS AND DEVICES FOR THEIR PULMONARY USE” (priority 2020, published 2023)", "origin": "cited, not measured here", "test_system": "cell proliferation", "details": "cited from earlier work", "note": "For at least one compound, name, drawing or mass did not settle the structure.", "data": [{"smiles": "CO[C@H]1C[C@@H]2CC[C@@H](C)[C@@](O)(O2)C(=O)C(=O)N2CCCC[C@H]2C(=O)O[C@H]([C@H](C)C[C@@H]2CC[C@@H](O)[C@H](OC)C2)CC(=O)[C@H](C)/C=C(\\C)[C@@H](O)[C@@H](OC)C(=O)[C@H](C)C[C@H](C)/C=C/C=C/C=C/1C", "note": "[Sirolimus]", "values": [{"measurement": "IC50", "result": "~0.1", "unit": "nM"}]}]}
